{"source": "PubChem BioAssay AID1671195 | Yale University, 2021", "test": "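Genes whose knockdown alters LDL uptake in liver cancer cells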 (primary screen)", "system": "human Huh7 hepatoma cells", "reagent": "siRNA pool against human genes, 18 nM", "duration": "about 2 to 2.5 days of knockdown, then 8 h LDL uptake", "treatment": "DiI-labelled LDL at 30 µg/ml for 8 h, in lipoprotein-deficient serum medium", "read-out": "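Fluorescent LDL signal imaged in cells, scaled to the plate median, robust z-score for each replicate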", "direction": "robust z-score: higher = more LDL uptake after knockdown", "rule for the call": "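a gene counts as active if at least two replicate z-scores exceed ±2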", "note": "In all, the deposit lists about 22,000 reagents; shown is a random part of them. Of all reagents, about 1,510 (6.9%) are marked active. 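Active includes knockdowns raising or lowering LDL uptake; positive z-scores mean more uptake, negative mean less.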 A number with no mark means an inactive call."}
{"gene": "CD86", "robust z-score, replicate 1": -1.26, "robust z-score, replicate 2": -0.774, "robust z-score, replicate 3": 0.139}
{"gene": "ATG10", "robust z-score, replicate 1": 0.515, "robust z-score, replicate 2": -0.222, "robust z-score, replicate 3": 0.237}
{"gene": "BNIP3", "robust z-score, replicate 1": -1.31, "robust z-score, replicate 2": -0.978, "robust z-score, replicate 3": -0.271}
{"gene": "LOXHD1", "robust z-score, replicate 1": -0.402, "robust z-score, replicate 2": -0.418, "robust z-score, replicate 3": 0.571}
{"gene": "NOP56P2", "robust z-score, replicate 1": 0.113, "robust z-score, replicate 2": -2.18, "robust z-score, replicate 3": 0.444}
{"gene": "ARL6IP1", "robust z-score, replicate 1": "4.58 (active)", "robust z-score, replicate 2": 1.96, "robust z-score, replicate 3": 1.74}
{"gene": "NAMPT", "robust z-score, replicate 1": "3.64 (active)", "robust z-score, replicate 2": 3.14, "robust z-score, replicate 3": 2.91}
{"gene": "FLJ35816 (retired record)", "robust z-score, replicate 1": -0.418, "robust z-score, replicate 2": -0.612, "robust z-score, replicate 3": 0.137}
{"gene": "TMEM121B", "robust z-score, replicate 1": 1.08, "robust z-score, replicate 2": -0.353, "robust z-score, replicate 3": 1.01}
{"gene": "CLUHP3", "robust z-score, replicate 1": -1.05, "robust z-score, replicate 2": -1.43, "robust z-score, replicate 3": -1.53}
{"gene": "PCGF3", "robust z-score, replicate 1": 0.394, "robust z-score, replicate 2": 0.82, "robust z-score, replicate 3": 0.901}
{"gene": "RNF11", "robust z-score, replicate 1": 0.265, "robust z-score, replicate 2": 0.258, "robust z-score, replicate 3": 0.746}
{"gene": "PCDHGA3", "robust z-score, replicate 1": 0.789, "robust z-score, replicate 2": 0.48, "robust z-score, replicate 3": 0.427}
{"gene": "SH3BP2", "robust z-score, replicate 1": 0.795, "robust z-score, replicate 2": -1.06, "robust z-score, replicate 3": 0.116}
{"gene": "HCFC1", "robust z-score, replicate 1": 1.87, "robust z-score, replicate 2": 1.23, "robust z-score, replicate 3": 0.548}
{"gene": "MRPL1", "robust z-score, replicate 1": 0.685, "robust z-score, replicate 2": 0.602, "robust z-score, replicate 3": 0.0919}

Just “robust z-score, replicate 2” (4 entries from above):
TMEM121B = -0.353
CLUHP3 = -1.43
PCGF3 = 0.82
RNF11 = 0.258

The list goes on.
{"gene": "AKNAD1", "robust z-score, replicate 1": 0.081, "robust z-score, replicate 2": 0.0937, "robust z-score, replicate 3": 0.698}
{"gene": "RASGRP2", "robust z-score, replicate 1": 0.796, "robust z-score, replicate 2": 1.23, "robust z-score, replicate 3": 1.04}
{"gene": "LOC285047 (retired record)", "robust z-score, replicate 1": 0.574, "robust z-score, replicate 2": 0.2, "robust z-score, replicate 3": -0.0535}
{"gene": "NUDT16L1", "robust z-score, replicate 1": 0.151, "robust z-score, replicate 2": 0.225, "robust z-score, replicate 3": 0.124}
{"gene": "PDAP1", "robust z-score, replicate 1": 0.169, "robust z-score, replicate 2": -1.26, "robust z-score, replicate 3": 0.618}
{"gene": "STK3", "robust z-score, replicate 1": 0.264, "robust z-score, replicate 2": -0.265, "robust z-score, replicate 3": 0.465}
{"gene": "LOC390488 (retired record)", "robust z-score, replicate 1": 0.0331, "robust z-score, replicate 2": 0.0685, "robust z-score, replicate 3": 0.154}
{"gene": "GNMT", "robust z-score, replicate 1": -0.702, "robust z-score, replicate 2": -1.28, "robust z-score, replicate 3": -0.148}
